Results on two molecules are retold here after paper PMC7017148.

By UniProt entry, the sequences of proteins in these tests, tags left out.
UniProt P07355: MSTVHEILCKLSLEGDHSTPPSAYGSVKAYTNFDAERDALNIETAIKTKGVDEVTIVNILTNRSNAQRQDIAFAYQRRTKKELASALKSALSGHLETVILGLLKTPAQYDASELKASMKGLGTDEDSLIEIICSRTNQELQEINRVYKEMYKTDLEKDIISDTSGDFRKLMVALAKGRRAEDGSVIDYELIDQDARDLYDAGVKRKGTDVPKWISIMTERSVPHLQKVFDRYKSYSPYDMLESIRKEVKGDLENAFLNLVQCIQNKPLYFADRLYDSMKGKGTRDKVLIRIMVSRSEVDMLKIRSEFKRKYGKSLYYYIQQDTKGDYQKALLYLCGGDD

No constants are given. Whether binding was seen depends on the method and setting. Binding seen in cells or lysates may run through a third protein. Some binding calls cover weakened binding; strength is not graded here.

Assay [1] concerns the target T1, E3 ubiquitin-ligase Hakai (human (endogenous in HEK293T, ACHN, HT29, HCT116)) (UniProt Q75N03).
T1 sequence: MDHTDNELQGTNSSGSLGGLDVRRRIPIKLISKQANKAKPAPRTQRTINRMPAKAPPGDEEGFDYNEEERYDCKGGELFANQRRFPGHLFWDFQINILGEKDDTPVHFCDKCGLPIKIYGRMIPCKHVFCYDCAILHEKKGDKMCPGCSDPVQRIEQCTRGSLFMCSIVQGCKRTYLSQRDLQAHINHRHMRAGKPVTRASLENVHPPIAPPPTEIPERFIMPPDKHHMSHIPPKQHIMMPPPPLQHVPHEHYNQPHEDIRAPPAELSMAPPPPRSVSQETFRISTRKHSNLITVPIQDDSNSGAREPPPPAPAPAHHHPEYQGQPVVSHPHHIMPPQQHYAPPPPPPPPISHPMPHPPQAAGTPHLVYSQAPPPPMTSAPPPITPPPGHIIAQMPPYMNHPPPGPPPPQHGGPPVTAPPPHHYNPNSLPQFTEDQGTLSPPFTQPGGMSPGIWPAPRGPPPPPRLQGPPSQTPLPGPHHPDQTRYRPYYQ
Kind of assay: condition: only cells treated with 10 µM geldanamycin for 24 h; co-IP; HCT116 cells treated with 10 µM geldanamycin for 24 h before lysis; immunoprecipitation with Hakai or Annexin A2 antibody; western blot.

For assay [2], the target named is T1, E3 ubiquitin-ligase Hakai (human (endogenous in HEK293T, ACHN, HT29, HCT116)). Kind of assay: co-IP; endogenous proteins; whole cell extracts (HEK293T, ACHN, HT29, HCT116) in 1% Triton X-100 buffer (20 mM Tris-HCl pH 7.5, 150 mM NaCl); antibody (Hakai, Hsp90 or Annexin A2) or control IgG on Protein A or Protein G PLUS agarose, 2 h at 4 °C; western blot.
Assay [3] addresses Annexin A2 (human (endogenous in HCT116)) (UniProt P07355). In words: condition: only cells treated with 10 µM geldanamycin for 24 h; co-IP; HCT116 cells treated with 10 µM geldanamycin for 24 h before lysis; immunoprecipitation with Hakai or Annexin A2 antibody; western blot.

Turning to Annexin A2 (from UniProt P07355 1-339), the binding entry in assay [1] was “no binding”; in assay [2] it was “binds”.

B1: E3 ubiquitin-ligase Hakai (protein, UniProt Q75N03 1-491)
chain: T1 sequence
For B1, the binding result in assay [3] is “no binding”.
